Source: PMC9918736
Results are given in words; binding and its absence hold for the method and conditions named. In cells and extracts the contact can be indirect. Some entries that bind do so weakly or less than the wild type.

Chains of the proteins cited; added tags and fusions are not shown. Residues count along the entry.
UniProt Q8VI56, residues 21-1725: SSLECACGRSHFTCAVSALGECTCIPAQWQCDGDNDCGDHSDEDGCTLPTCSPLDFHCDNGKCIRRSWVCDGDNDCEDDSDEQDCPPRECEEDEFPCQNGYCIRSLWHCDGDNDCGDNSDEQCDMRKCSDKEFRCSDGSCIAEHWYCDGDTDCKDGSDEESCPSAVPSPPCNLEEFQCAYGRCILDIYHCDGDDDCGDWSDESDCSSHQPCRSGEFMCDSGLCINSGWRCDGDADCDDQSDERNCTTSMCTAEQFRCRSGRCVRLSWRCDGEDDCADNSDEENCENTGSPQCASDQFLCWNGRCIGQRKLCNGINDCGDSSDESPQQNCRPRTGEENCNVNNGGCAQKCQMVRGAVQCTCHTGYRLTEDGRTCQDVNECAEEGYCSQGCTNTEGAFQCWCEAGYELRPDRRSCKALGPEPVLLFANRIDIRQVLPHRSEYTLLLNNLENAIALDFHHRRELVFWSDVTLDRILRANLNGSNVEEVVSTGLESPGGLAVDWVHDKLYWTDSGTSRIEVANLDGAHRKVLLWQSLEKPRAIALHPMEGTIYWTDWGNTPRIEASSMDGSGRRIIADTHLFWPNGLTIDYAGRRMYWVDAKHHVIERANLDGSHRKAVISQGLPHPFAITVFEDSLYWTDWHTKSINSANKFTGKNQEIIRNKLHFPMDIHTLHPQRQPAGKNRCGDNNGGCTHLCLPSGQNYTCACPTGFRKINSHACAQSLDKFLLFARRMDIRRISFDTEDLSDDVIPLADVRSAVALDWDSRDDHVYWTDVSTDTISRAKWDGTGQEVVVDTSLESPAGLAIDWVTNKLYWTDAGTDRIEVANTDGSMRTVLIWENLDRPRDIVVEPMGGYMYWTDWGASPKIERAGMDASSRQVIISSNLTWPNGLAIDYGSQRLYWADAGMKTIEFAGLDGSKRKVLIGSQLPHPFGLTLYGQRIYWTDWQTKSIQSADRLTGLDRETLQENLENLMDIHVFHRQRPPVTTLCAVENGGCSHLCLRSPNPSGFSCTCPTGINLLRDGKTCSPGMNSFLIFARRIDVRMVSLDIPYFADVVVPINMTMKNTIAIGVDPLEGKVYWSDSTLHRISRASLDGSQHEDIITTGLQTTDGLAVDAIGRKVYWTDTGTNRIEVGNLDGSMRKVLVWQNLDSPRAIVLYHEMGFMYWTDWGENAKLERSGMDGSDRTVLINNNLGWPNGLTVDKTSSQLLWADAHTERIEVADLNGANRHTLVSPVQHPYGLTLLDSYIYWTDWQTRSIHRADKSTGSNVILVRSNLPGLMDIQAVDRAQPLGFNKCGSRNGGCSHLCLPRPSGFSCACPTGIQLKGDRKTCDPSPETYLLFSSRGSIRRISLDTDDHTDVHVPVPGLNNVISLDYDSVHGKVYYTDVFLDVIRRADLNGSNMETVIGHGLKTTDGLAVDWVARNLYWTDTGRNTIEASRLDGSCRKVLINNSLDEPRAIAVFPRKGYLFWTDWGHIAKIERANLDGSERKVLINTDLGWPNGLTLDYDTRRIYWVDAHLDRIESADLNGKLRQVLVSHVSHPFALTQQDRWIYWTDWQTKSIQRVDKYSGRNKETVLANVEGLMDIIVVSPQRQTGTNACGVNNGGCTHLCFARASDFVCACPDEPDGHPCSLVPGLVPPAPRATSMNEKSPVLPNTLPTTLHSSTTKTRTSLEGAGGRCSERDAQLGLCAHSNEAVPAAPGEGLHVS
UniProt P12023, residues 18-770: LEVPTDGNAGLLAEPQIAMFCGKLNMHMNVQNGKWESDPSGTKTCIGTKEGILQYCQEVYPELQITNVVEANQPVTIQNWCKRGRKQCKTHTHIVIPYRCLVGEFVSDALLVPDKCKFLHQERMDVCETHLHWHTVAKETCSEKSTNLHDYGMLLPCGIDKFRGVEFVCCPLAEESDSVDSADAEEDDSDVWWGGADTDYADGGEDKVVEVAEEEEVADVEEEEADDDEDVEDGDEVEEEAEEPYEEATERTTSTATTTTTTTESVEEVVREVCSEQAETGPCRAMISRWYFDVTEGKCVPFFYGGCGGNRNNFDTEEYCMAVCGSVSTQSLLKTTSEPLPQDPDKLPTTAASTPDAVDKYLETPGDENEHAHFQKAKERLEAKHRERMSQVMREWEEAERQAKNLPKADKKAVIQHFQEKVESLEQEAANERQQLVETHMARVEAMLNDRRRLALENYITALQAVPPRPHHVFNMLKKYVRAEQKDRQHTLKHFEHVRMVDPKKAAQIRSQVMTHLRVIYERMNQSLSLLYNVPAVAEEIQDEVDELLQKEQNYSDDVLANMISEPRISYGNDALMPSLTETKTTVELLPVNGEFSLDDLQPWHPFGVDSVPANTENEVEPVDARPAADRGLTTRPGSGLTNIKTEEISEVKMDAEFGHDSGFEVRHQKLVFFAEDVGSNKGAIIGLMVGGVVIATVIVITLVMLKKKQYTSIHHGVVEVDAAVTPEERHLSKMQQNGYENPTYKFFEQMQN

Target: Flag-tagged ECD of LRP4 (UniProt Q8VI56)
Assay: co-IP; HEK293 cells co-transfected with APP constructs and Flag-tagged LRP4 ECD constructs; lysates in modified RIPA buffer (150 mM NaCl, 2.5 mM EDTA, 50 mM Tris-HCl) incubated with anti-Flag beads 4-5 h or overnight at 4 °C; immunocomplexes probed with anti-APP antibody

“GFP-APP (amyloid precursor protein) (from UniProt P12023 18-770)” was tested, and the binding was “binds”.
